Measurements: US20100330697A1, “COMPLEXES OF TRPC DOMAINS AND SESTD1 DOMAINS AND METHODS AND USES INVOLVING THE SAME” (SANOFI-AVENTIS, priority 2007, published 2010)

Target: T1, mTRPC4α (615-974)/leucine zipper/pGBKT7 (murine, UniProt P04386 1-147; Q9QUQ5 615-974)
T1 construct: Yeast two-hybrid bait in yeast AH109; the order here follows the printed construct name behind the GAL4 DNA-BD; The zipper is said to direct tetramerization; also called mTRPC4a C-terminus
Test: directed yeast two-hybrid, growth on selective media

B1: SESTD1-Sec 14 (aa 1-192), GAL4 activation domain fusion (other, human, UniProt Q86VW0 1-192, looked up, not shown: large carriers)
chain: MEASVILPILKKKLAFLSGGKDRRSGLILTIPLCLEQTNMDELSVTLDYLLSIPSEKCKARGFTVIVDGRKSQWNVVKTVVVMLQNVVPAEVSLVCVVKPDEFWDKKVTHFCFWKEKDRLGFEVILVSANKLTRYIEPCQLTEDFGGSLTYDHMDWLNKRLVFEKFTKESTSLLDELALINNGSDKGNQQEK
notes: range 1-192; Directed yeast two-hybrid prey
  binding result: no binding
